This is one part of the list.
Compound: CC1Cc2ccccc2N1C(=O)C1CCCN(C1)C(=O)CCl (mixture of isomers) [TRIM25 ligand 11 (diastereomer mixture)]
Assay: probe-labelled cysteine peptide fold change vs DMSO (competition) (log2 fold change); higher = less target engagement (more negative = stronger competition)
Conditions: THP-1, incubation time: 4 h
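Also: competitive chemoproteomic profiling in live THP-1 cells with an iodoacetamide desthiobiotin (IA-DTB) probe, comparing probe-labelled peptide intensities in compound-treated cells against DMSO-treated controls.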

The chains behind the UniProt entries cited, without tags or fusion partners. Where a name states a change or a piece, a line headed by the entry shows the natural chain unless it says otherwise.
UniProt Q99700, whole entry, looked up: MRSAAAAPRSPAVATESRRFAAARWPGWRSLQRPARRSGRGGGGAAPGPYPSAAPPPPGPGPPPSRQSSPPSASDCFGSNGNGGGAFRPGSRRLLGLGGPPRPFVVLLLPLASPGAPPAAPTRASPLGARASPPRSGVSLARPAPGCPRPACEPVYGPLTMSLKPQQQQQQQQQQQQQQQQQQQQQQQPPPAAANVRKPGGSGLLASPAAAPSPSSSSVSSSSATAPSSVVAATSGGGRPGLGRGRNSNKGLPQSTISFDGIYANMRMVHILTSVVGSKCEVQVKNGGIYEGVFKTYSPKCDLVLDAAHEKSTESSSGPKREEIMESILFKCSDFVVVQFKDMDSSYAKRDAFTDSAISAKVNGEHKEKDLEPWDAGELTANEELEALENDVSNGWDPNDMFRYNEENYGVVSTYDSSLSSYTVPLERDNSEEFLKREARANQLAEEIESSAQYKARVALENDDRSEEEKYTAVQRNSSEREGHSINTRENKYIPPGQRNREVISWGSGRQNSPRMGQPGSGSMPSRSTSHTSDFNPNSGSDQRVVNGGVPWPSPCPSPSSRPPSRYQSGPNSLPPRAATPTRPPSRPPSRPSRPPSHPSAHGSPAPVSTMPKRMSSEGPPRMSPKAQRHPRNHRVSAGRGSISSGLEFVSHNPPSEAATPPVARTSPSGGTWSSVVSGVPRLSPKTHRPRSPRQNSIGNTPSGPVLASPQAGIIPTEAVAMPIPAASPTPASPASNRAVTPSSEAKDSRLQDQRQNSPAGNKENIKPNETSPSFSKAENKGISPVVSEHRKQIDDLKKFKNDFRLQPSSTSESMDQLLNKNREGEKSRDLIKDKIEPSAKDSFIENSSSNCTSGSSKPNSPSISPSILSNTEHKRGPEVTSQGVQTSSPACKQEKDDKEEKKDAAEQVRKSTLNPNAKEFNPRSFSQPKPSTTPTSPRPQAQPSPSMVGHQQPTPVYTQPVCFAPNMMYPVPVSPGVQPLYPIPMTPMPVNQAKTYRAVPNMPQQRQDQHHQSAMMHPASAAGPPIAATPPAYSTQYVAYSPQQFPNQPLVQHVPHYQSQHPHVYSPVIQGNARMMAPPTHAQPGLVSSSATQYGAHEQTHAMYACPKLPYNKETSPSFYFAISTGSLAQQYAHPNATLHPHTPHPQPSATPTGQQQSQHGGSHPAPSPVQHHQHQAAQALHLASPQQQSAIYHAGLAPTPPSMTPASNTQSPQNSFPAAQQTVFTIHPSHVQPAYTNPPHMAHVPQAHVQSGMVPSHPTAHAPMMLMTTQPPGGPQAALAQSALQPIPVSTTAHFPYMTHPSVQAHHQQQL
UniProt P35226: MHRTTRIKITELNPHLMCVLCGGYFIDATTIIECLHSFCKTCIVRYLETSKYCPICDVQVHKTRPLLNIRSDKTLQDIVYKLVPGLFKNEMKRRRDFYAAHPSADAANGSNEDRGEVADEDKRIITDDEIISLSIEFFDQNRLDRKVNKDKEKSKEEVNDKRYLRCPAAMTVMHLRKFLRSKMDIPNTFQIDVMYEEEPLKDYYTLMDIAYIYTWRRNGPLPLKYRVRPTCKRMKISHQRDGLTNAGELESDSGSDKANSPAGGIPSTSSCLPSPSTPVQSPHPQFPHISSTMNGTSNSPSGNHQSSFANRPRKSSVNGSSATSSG
UniProt Q9NZM4: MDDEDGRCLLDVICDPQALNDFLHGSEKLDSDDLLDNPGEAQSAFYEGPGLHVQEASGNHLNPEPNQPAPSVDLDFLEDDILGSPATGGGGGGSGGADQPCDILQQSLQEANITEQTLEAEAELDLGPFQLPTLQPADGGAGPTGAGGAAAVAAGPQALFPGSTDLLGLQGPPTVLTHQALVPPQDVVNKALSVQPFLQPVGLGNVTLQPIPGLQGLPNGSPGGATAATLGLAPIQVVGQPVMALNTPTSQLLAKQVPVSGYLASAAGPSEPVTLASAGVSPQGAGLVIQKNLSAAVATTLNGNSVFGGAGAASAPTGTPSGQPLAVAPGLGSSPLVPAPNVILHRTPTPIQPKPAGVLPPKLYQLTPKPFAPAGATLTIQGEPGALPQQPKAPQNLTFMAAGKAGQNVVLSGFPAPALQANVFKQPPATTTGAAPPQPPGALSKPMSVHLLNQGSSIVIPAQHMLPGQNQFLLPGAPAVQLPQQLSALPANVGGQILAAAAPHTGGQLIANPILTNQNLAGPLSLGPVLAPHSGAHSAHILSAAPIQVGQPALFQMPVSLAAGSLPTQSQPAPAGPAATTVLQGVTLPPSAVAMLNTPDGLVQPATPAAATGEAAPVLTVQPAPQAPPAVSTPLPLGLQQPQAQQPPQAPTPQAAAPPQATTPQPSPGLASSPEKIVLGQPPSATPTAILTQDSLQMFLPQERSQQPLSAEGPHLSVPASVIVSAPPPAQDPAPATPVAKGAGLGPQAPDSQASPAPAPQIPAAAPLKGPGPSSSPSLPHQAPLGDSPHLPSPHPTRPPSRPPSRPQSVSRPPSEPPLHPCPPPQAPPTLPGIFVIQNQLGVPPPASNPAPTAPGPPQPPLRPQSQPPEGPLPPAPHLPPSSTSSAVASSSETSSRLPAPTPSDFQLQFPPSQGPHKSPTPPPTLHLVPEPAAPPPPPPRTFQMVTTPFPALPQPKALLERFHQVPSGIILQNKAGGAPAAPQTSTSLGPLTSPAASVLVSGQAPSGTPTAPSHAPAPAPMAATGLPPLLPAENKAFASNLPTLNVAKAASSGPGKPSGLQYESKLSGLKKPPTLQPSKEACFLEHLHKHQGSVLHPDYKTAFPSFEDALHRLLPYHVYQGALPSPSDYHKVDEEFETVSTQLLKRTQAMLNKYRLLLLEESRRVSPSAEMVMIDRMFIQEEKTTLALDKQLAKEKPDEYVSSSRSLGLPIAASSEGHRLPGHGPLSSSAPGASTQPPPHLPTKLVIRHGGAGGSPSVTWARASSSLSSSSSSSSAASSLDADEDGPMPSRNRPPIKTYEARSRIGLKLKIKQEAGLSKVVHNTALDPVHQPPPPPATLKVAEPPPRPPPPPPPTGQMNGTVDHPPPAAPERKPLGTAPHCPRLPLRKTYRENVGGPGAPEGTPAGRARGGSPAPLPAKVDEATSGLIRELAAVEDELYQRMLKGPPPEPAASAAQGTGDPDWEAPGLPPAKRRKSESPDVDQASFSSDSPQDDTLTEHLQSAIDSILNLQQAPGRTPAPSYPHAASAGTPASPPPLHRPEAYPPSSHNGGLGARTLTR
UniProt Q6ZT62: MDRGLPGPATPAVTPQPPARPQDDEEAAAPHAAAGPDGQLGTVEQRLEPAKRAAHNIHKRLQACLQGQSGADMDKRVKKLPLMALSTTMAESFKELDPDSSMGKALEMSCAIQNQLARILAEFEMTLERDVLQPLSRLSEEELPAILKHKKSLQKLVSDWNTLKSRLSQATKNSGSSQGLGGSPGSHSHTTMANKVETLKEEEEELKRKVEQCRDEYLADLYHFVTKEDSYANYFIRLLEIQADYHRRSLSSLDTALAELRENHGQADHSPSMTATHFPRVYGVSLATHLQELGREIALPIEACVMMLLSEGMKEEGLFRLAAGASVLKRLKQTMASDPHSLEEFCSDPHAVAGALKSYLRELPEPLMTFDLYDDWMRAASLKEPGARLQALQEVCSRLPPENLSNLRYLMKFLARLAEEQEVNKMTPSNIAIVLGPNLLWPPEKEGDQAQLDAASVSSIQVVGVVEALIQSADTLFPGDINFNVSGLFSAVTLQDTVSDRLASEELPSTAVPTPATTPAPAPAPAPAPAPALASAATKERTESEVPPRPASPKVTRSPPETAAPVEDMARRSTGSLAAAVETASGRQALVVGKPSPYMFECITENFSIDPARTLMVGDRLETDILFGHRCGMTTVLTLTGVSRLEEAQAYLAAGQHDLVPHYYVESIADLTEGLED
UniProt O15382: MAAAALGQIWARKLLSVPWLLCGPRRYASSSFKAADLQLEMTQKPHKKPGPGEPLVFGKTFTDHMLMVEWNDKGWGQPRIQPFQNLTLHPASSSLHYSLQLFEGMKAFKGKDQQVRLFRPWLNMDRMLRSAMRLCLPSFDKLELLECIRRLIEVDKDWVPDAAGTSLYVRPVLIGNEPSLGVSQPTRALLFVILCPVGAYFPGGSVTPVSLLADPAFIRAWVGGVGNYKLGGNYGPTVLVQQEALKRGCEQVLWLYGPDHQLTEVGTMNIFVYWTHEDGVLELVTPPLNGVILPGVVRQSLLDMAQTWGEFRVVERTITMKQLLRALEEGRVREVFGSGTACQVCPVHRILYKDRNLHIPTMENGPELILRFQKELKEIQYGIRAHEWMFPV
UniProt P54132: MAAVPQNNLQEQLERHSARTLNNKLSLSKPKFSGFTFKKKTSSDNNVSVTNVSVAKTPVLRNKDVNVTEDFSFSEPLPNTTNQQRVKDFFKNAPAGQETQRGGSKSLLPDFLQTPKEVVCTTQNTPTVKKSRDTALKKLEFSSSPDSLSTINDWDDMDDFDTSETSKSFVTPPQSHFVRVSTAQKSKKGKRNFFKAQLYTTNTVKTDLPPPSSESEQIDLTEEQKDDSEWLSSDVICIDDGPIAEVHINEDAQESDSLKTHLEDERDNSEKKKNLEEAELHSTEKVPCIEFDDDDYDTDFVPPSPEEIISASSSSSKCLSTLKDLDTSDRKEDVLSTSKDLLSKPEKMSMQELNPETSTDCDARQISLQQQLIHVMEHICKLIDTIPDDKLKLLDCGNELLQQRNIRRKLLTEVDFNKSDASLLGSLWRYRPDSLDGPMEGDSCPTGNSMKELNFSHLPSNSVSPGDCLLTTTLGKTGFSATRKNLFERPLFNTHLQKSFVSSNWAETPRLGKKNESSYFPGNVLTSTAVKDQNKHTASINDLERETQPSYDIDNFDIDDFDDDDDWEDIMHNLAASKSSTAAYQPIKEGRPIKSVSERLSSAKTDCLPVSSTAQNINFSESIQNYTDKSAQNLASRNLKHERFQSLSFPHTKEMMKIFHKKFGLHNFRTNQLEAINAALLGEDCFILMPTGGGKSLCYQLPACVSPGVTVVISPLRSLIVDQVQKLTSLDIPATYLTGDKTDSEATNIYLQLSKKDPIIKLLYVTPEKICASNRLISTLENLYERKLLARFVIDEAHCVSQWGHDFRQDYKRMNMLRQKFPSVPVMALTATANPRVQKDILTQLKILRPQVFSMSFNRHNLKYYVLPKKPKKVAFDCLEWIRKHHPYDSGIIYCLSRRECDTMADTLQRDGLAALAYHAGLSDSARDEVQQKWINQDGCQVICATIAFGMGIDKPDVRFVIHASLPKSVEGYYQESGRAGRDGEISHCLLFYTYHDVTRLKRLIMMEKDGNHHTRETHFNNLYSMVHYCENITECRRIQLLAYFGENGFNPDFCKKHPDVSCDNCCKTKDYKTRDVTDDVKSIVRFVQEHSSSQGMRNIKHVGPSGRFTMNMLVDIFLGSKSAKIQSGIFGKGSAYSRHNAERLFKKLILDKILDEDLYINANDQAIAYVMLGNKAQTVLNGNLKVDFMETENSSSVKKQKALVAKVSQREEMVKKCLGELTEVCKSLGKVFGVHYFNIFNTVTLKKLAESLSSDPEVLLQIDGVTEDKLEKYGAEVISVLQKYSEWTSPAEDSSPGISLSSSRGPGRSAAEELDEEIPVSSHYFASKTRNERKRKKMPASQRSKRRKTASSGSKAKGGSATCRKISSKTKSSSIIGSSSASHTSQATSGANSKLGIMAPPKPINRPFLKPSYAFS
UniProt O14867: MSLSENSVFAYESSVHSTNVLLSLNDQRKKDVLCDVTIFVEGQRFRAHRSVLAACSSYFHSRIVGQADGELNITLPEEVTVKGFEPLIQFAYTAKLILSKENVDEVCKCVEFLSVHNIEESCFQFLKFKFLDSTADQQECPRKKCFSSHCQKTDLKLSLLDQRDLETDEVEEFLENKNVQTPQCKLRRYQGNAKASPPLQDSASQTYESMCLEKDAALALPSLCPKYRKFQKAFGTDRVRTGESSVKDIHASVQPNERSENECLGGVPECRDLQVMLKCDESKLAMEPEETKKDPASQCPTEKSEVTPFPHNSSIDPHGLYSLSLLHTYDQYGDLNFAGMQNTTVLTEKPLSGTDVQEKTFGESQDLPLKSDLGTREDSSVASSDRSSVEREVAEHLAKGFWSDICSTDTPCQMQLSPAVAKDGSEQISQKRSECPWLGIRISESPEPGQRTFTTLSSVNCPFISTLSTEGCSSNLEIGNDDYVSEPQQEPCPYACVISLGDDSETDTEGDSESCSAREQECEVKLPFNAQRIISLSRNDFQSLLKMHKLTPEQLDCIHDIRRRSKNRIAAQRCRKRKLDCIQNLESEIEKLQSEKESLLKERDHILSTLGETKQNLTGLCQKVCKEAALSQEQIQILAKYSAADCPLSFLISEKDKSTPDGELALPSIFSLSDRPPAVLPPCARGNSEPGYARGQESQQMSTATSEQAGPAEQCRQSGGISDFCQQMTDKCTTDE

Target | probe-labelled cysteine peptide fold change (10 µM) | probe-labelled cysteine peptide fold change (50 µM)
ATXN2_Q99700_556_VVNGGVPWPSPCPSPSSRPPSR (UniProt Q99700) | -0.136 | -0.0514
BMI1_P35226_166_CPAAMTVMHLR (UniProt P35226) | -0.078 | -0.0532
BICRA_Q9NZM4_1382_KPLGTAPHCPR (UniProt Q9NZM4) | 0.0732 | 0.165
BARGIN_Q6ZT62_110_ALEMSCAIQNQLAR (UniProt Q6ZT62) | 0.0513 | 0.192
BCAT2_O15382_135_LCLPSFDK (UniProt O15382) | 0.102 | 0.495
BLM_P54132_380_QISLQQQLIHVMEHICK (UniProt P54132) | -0.0581 | -0.0667
BACH1_O14867_557_LTPEQLDCIHDIR (UniProt O14867) | -0.0606 | -0.266
BIRC6_Q9NR09_2910_AVCGEMTR (UniProt Q9NR09) | 0.109 | 0.0225
